Experimental data taken from PubChem BioAssay AID445 (National Center for Advancing Translational Sciences (NCATS), 2006).
The list shows a part of the results. These are further read-outs of the screen, such as a control signal, another cell line or another target. No call is given for them. Most of these compounds were active or inconclusive in the main read-out, so they are no random draw. Words in brackets tell the shape of the fitted curve; partial curves, single points and poor fits give uncertain potencies.

assay: IkB Signaling; settings: ABC-DLBCL IkBa-CBG/CBR dual luciferase ratio (green luciferase fused to IkBa over red control in OCI-Ly3 lymphoma cells), 4 h; measured here: control luc red channel unless noted
How it was run: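 Luminescence ratio of IκBα-fused green versus native red beetle luciferase in OCI-Ly3 cells, 4 h post-doxycycline with compound; red signal alone, scaled from basal (0%) to zero light (-100%), flagged nonspecific or cytotoxic effects.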

| Structure (SMILES) | AC50 |
| --- | --- |
| CCOc1ccc(NC(=O)CN2CCCN(Cc3cc(C)ccc3C)S2(=O)=O)cc1 | 15.8 µM [falling, partial curve] |
| Cn1c(-c2ccc(F)cc2)cnc1NCc1ccccc1 | 15.8 µM [falling, partial curve] |
| COc1ccc(Cl)cc1-n1nnc(-c2nsc(NC(=O)c3ccccc3Cl)n2)c1C | 39.8 µM [falling, single point] |
| COc1ccc(C2(CNC(=O)C(=O)Nc3ccc(F)cc3)CCCC2)cc1OC | 1.58 µM [falling, full curve] |
| Cc1ccc(NS(=O)(=O)c2ccc3c(c2)CCCN3C(=O)C2CCC2)c(C)c1 | 31.6 µM [falling, partial curve, poor fit] |
| O=C(/C=C/N1CCOCC1)c1ccc(-c2ccccc2)cc1 | 10 µM [falling, partial curve] |
| COc1ccc2[nH]c3c(c2c1)CN(C)CC3 | 25.1 µM [falling, partial curve] |
| CS(=O)(=O)N(Cc1ccco1)CC(O)Cn1c2ccccc2c2ccccc21 (configuration not stated) | 12.6 µM [falling, partial curve] |
| CCN(CC)C(=O)Cn1cc(SCC(=O)Nc2ccccc2C)c2ccccc21 | 39.8 µM [falling, single point] |
| Cc1cccc(-c2nc(SCCCOc3ccc(Cl)c(C)c3)n3[nH]c(=O)cc3n2)c1 | 3.98 µM [rising, full curve] |
| CCOc1ccc(NC(=O)c2ccccc2O)cc1 | 5.01 µM [falling, partial curve] |
| CCc1c(C)nc2ncnn2c1N1CCC(C(=O)N2CCN(c3ccc(F)cc3)CC2)CC1 | 20 µM [falling, partial curve] |
| Cc1ccc(C)n1-c1nnc(N2CCCC(C(=O)NCc3cccc(Cl)c3)C2)s1 (configuration not stated) | 31.6 µM [falling, single point] |
| Cc1ccc(/C=C/c2onc(C)c2S(=O)(=O)N2CCC(C(=O)NCC(C)c3ccccc3)CC2)cc1 (configuration not stated) | 0.00631 µM [falling, full curve] |
| O=C(Nc1ccc2c(c1)OCCO2)C1CCCN(S(=O)(=O)c2cccs2)C1 (configuration not stated) | 31.6 µM [falling, partial curve] |
| Cc1ccc(Cl)cc1N1CCN(S(=O)(=O)c2ccc3c(c2)CCCN3C(=O)C2CCC2)CC1 | 0.00631 µM [falling, full curve, poor fit] |
| Cc1ccc(CN2C(=O)c3oc4ccc(C)cc4c(=O)c3C2c2ccc(O)cc2)cc1 (configuration not stated) | 3.16 µM [rising, single point] |
| COc1cc(OC)c(NC(=O)Cn2c(=O)oc3cc(S(=O)(=O)N4CCCC4)ccc32)cc1Cl | 7.94 µM [falling, partial curve] |
| COc1ccc(CCNS(=O)(=O)c2ccc(C(=O)NCc3ccco3)cc2)cc1OC | 1 µM [rising, full curve, poor fit] [measured here: IkB-luc green channel] |
| Cc1cc(Cl)ccc1NC(=O)CN(c1ccccc1Br)S(C)(=O)=O | 31.6 µM [falling, single point] |
| COc1ccc(CN2CCN(c3ncnc4sc5c(c34)CC(C)CC5)CC2)cc1F (configuration not stated) | 20 µM [falling, single point] |

| Structure (SMILES) | AC50 |
| --- | --- |
| COc1ccccc1N1CCN(CCCNC(=O)c2cnn(-c3ccccc3)c2C2CCN(C(=O)OC(C)(C)C)CC2)CC1 | 25.1 µM [falling, partial curve] |
| COCCCNc1oc(-c2ccc(COc3ccc(Cl)cc3)o2)nc1C#N | 39.8 µM [falling, single point] |
| CCCCCNC(=O)CCCCCn1c(=O)[nH]c2ccsc2c1=O | 0.0316 µM [falling, full curve, poor fit] |
| CCOc1ccc(C2CC(=O)Nc3c2c(=O)nc(SCc2ccccc2C)n3C)cc1OC (configuration not stated) | 25.1 µM [falling, single point] |
| COC(=O)c1ccccc1NC(=O)Cn1c(-c2nonc2N)nc2ccccc21 | 1.26 µM [rising, partial curve] [measured here: IkB-luc green channel] |
| O=C(NCc1ccccn1)c1cc2ccccc2oc1=O | 12.6 µM [falling, partial curve] |
| Cc1cccn2c(=O)c3cc(C(=O)NC(C)c4ccccc4)c(=N)n(CCCO)c3nc12 (configuration not stated) | 31.6 µM [falling, single point] |
| COC(=O)c1ccc(OCC2c3cc(OC)c(OC)cc3CCN2C(=O)c2ccc(F)cc2)cc1 (configuration not stated) | 39.8 µM [falling, single point] |
| O=C(Cn1nnc(-c2ccccc2Cl)n1)Nc1ccc(Br)cc1 | 39.8 µM [falling, single point] |
| Cc1c2ccccc2c(CSC(=N)N)c2ccccc12 | 3.16 µM [falling, partial curve] |
| COc1ccc(C(=O)NCC(c2ccc(N(C)C)cc2)N2CCc3ccccc32)c(OC)c1 (configuration not stated) | 20 µM [falling, single point] |
| COc1ccc(S(=O)(=O)NCC(c2ccco2)N2CCOCC2)cc1OC (configuration not stated) | 0.158 µM [rising, full curve, poor fit] |
| Cc1ccc(NC(=O)CCc2c(C)nc3cc(-c4ccccc4)nn3c2C)cc1F | 0.398 µM [falling, full curve] |
| CCN1C(=O)c2ccccc2Sc2ccc(NC(=O)c3ccc(Cl)cc3)cc21 | 39.8 µM [falling, single point] |
| CCOC(=O)Nc1ccc2c(c1)N(C(=O)N1CCN(C)CC1)c1ccccc1S2 | 10 µM [falling, partial curve] |
| O=C(Cc1ccccc1)Nc1nc(-c2cccs2)cs1 | 20 µM [falling, single point] |
| COc1ccc(C(=O)NCCn2cc(SCC(=O)Nc3nnc(C)s3)c3ccccc32)cc1 | 20 µM [falling, partial curve] |
| CC(C)OC(=O)CSc1nnc(-c2ccc(O)cc2)n1Cc1ccccc1 | 25.1 µM [falling, single point] |
| CCOc1ccc(CN2CCc3nc(Nc4ccc(OC)cc4OC)ncc3C2)cc1 | 10 µM [falling, partial curve] |
| CCN(CC)CCCNC(=O)c1nn(C)c2c1CS(=O)(=O)c1ccccc1-2 | 15.8 µM [falling, partial curve] |
| Cc1ccccc1Cn1c(CN2CCC(C(=O)NCCc3ccccc3)CC2)cc2ccccc21 | 1.26 µM [rising, full curve, poor fit] |

Four entries from above, field by field.
CCCCCNC(=O)CCCCCn1c(=O)[nH]c2ccsc2c1=O
  AC50: 0.0316 µM [falling, full curve, poor fit]
CCOc1ccc(C2CC(=O)Nc3c2c(=O)nc(SCc2ccccc2C)n3C)cc1OC (configuration not stated)
  AC50: 25.1 µM [falling, single point]
COC(=O)c1ccccc1NC(=O)Cn1c(-c2nonc2N)nc2ccccc21
  AC50: 1.26 µM [rising, partial curve] [measured here: IkB-luc green channel]
O=C(NCc1ccccn1)c1cc2ccccc2oc1=O
  AC50: 12.6 µM [falling, partial curve]

Going on with the list:

| Structure (SMILES) | AC50 |
| --- | --- |
| Cc1ccc2sc(NC(=O)c3ccc4c(c3)OCCO4)nc2c1C | 20 µM [falling, partial curve] |
| COc1ccc2c(c1)c1c(c(=O)n(-c3ccc(F)c(Cl)c3)c(=O)n1Cc1ccccc1C)n2C | 0.0631 µM [rising, full curve] |
| CCSC1=NC2(CCN(C(=O)NC3CCCCC3)CC2)N=C1c1ccc(Cl)cc1 | 25.1 µM [falling, single point] |
| CCN(Cc1ccccc1)C(=O)Cn1c(=O)n(-c2ccc(C)c(C)c2)c(=O)c2c(C)c(C)sc21 | 7.94 µM [falling, partial curve] |
| COc1ccc(CNc2oc(-c3ccc(COc4ccccc4C)o3)nc2C#N)cc1 | 3.98 µM [falling, full curve] |
| O=C(Nc1nccs1)c1cc2sccc2n1Cc1ccc(F)cc1 | 1 µM [rising, partial curve] [measured here: IkB-luc green channel] |
| COc1cccc(C(=O)Nc2cccc(-c3cn4c(C)csc4n3)c2)c1OC | 39.8 µM [falling, single point] |
| O=C(Nc1cccc(Cl)c1)c1cc2c(=O)[nH]c3ccccc3c2s1 | 0.01 µM [falling, full curve] |
| Cc1cccc(N2CCN(C(=O)CCn3c(=O)c4cccn4c4cccnc43)CC2C)c1 (configuration not stated) | 15.8 µM [falling, partial curve] |
| COc1cc2c(c(OC)c1)C(c1cccc(OC)c1OC)CC(=O)N2 (configuration not stated) | 25.1 µM [rising, partial curve] |
| CC1(C)CCC2=C(O1)c1ccccc1C(=O)C2=O | 31.6 µM [rising, partial curve, poor fit] [measured here: IkB-luc green channel] |
| Cc1nnc(N2CCCC(C(=O)NCCc3ccc(Cl)cc3)C2)c2nn(-c3ccccc3)c(C)c12 (configuration not stated) | 20 µM [falling, partial curve] |
| CCOc1ccc(-c2nn(CC(=O)NC3CCCC3)c3c2cnc2ccc(F)cc23)cc1 | 0.631 µM [rising, full curve, poor fit] |
| O=C(NCCc1ccccc1Cl)c1ccc2c(c1)nc1n2CCCCC1 | 39.8 µM [falling, single point] |
| Cc1ccc(Cl)cc1N1CCN(Cc2nnc(-c3ccc4c(c3)OCO4)o2)CC1 | 25.1 µM [falling, partial curve] |
| Cc1cc(NC(=O)C2CCN(S(=O)(=O)c3ccc(Br)s3)CC2)ccc1Br | 15.8 µM [falling, partial curve] |
| CCN(CC)CCCNC(=O)c1cc(-c2cccc(Cl)c2)on1 | 10 µM [falling, partial curve] |
| Cc1ccc(CNC(=O)CSc2n[nH]c(-c3ccc(F)cc3)n2)cc1 | 15.8 µM [falling, single point] |
| O=C(COc1ccccc1O)Nc1ccc(Cl)cc1 | 7.94 µM [falling, partial curve] |
| Cc1cc2oc(C(=O)Nc3ccc(S(=O)(=O)N4CCCCCC4)cc3)cc(=O)c2cc1C | 0.0398 µM [rising, full curve] |
